± gives the standard deviation. Only a part is listed here, and it is no random draw. Many entries were measured with a wide error.
Test system: MIWI (PIWIL1) piRISC loaded with piRNA #2 (30 nt)
Experiment: pre-steady-state target cleavage rate (min^-1); MIWI and MILI are mouse PIWI proteins and EfPiwi is from a freshwater sponge; tags in brackets are library labels; higher = faster piRNA-guided slicing of the target
Settings: guide: piRNA #2 5'p-UUAGGUAACCCAGUAGAUCCAGAGGAAUUC; auxiliary factor: 500 nM mouse GTSF1
Description: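 Cleave-'n-Seq: a library of target RNAs (target site embedded in constant flanks, ACAGCATTCCGCGTTAGTGATATCCG... 5' flank; DNA-blocked outside the site) at 0.1 nM was incubated with 1 nM active mouse MILI or MIWI piRISC (synthetic 5'-monophosphorylated piRNA guide) with or without 500 nM mouse GTSF1 at 33 °C for 1 min to 16 h. Uncleaved targets were sequenced and normalised to non-target controls, and the pooled three trials were fitted to a burst-and-steady-state model to give the pre-steady-state cleavage rate (min^-1; k3 is constrained to at most 1e-4). Sequence is the target site only; target names encode pairing extent (gX:gY) and contiguous / 1-mismatch / 2-mismatch / bulge geometry. Fits with R² ≤ 0 are excluded.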

Row | Sequence | pre-steady-state target cleavage rate
1 | CUUAAGGAGACCUAGAUCUGGGAAUCCUAA | 0.000424 ± 0.018
2 | CAAUUCGACUGGAUCUACUGGGUUACCUAA | 0.357 ± 0.05
3 | CUUAAGGAGACCAUCUACACGGUUACCUAA | 0.00105 ± 0.0072
4 | CUUAAGGUCUGGAUCGUACUGGGUUACCUAA | 0.00294 ± 0.01
5 | CUUAAGGAGAGGUUGUACUGGGUUACCUAA | 0.000224 ± 0.034
6 | CAAUUCCUCAGGAUCUACUGGGUUACCUUA | 0.604 ± 0.075
7 | CUUAAGGAGACGAUCUACUGGGUACCUAA | 0.000768 ± 0.007
8 | CUUAAGGAGACGAUCUACUGGGUUACCUCAA | 0.00128 ± 0.0052
9 | CUUAAGGAGAGGAUCUACUGGGUUACGAAA | 0.000449 ± 0.021
10 | CUUUUCCUCUGGAUCUACUGCGUUACCUAA | 0.527 ± 0.057
11 | CUUAAGGAGACCUACUACUGGUUACCUAA | 0.00106 ± 0.0086
12 | CUUAAGGAGACGAACUACUGGGUUACCUAA | 0.000341 ± 0.016
13 | CUUAAGGAGACCUUCUACUGGGUUGACCUAA | 0.00198 ± 0.0041
14 | CUAUUCCUCUGGUUCUACUGGGUUUCCUAA | 1.05 ± 0.44
15 | CAAUUCCUCUGAUCUACUGGGUUACCUAA | 0.528 ± 0.061
16 | CUUAAGGAGACCAUCUACGGGUUACCUAA | 0.00289 ± 0.0059
17 | GAAUUCCUCUGGAUCUAACUGGGUUACCUAA | 0.00402 ± 0.0044
18 | CUUAAGGAGACCUAGAUCUGGGUUACUCUAA | 0.00032 ± 0.029
19 | CUUAAGGAGAGGAUCUACUGGGUUUGCUAA | 0.000179 ± 0.037
20 | CUUAAGGAGUGGAUCAACUGGGUUACCAAA | 0.00306 ± 0.0049
21 | CAAUUCCACUGGAUCUACUGGGUUAGCUAA | 0.223 ± 0.076
22 | CUUAAGGAGUGGAUCUAGUGGGUUAGCUAA | 0.000807 ± 0.015
23 | CUUAAGGAGAGGAUCUACUGGGUGACCUAA | 0.00306 ± 0.0058
24 | CUUAAGGAGACCUAGAUGUGGGUUACCUAU [g2:g12:cont:t1U] | 0.000797 ± 0.0082

Rewritten with tabs: entries from further up
Row	Sequence	pre-steady-state target cleavage rate
10	CUUUUCCUCUGGAUCUACUGCGUUACCUAA	0.527 ± 0.057
21	CAAUUCCACUGGAUCUACUGGGUUAGCUAA	0.223 ± 0.076

Remaining list, next part

Row | Sequence | pre-steady-state target cleavage rate
25 | CUUAAGGAGACCUAGUACUUGGGUUACCUAA | 0.000503 ± 0.0093
26 | CUUAAGGAGUGGAUCUACUCGGUUAGCUAA | 0.000272 ± 0.044
27 | CUUAAGCUCUGGAUCUACUCCCUUACCUAA | 0.000185 ± 0.037
28 | CUUAAGGAGAGGAACUACUGGGUUACCAAA | 0.000339 ± 0.024
29 | CAAUUCCUCUGGAUCUACUGGGUAACCUAA | 0.263 ± 0.049
30 | CUUAAGGAGACCUAGAUGAGGCUUACCUAA | 0.000367 ± 0.012
31 | CUUAAGGUCUGGAUCUACGUGGGUUACCUAA | 0.000118 ± 0.06
32 | CUUAAGGAGACGAUCUACUGGGUUACCUAU [g2:g19:cont:t1U] | 0.00299 ± 0.004
33 | GAAUUCCUCUGGUUCUACUGGGUAACCUAA | 0.288 ± 0.063
34 | CUUAAGGAGAGGAUCAUCUGGGUUACCUAA | 0.000193 ± 0.032
35 | CUUAAGGAGACCAUCAACUGCGUUACCUAA | 0.00173 ± 0.0029
36 | CUUAAGGACUGGAUCUUCUGGGUUAGCUAA | 0.0075 ± 0.01
37 | CUUAAGGAGACGAUCUACUAGGGUUACCUAA | 0.00264 ± 0.0053
38 | CUUAAGGAGUGGUUCUACUCGGUUACCUAA | 0.00269 ± 0.0098
39 | CUUAAGGAGACCAUCUACUUGGGUUACCUAA | 0.00115 ± 0.0054
40 | CUUAUCCUCUCGAUCUACUGGGUUACCUAA | 0.561 ± 0.04
41 | CAAUUCCUCUGGAUCUACAGGGUUAGCUAA | 0.157 ± 0.054
42 | CUUAAGGAGACCUACUACUGGGUAAGCUAA | 0.000965 ± 0.0072
43 | CUUAAGGUCUGGAUCUACUGGGUAUGCUAA | 0.00313 ± 0.0041
44 | CUUAAGGAGACCUAGAUGAGGGUUACGAUA | 0.000785 ± 0.0076
45 | CUUAAGGAGUGGAACUACUGGGAUACCUAA | 0.00192 ± 0.011
46 | CUUAAGGAGACCUAGAUCUGGGUUCCUAA | 0.000449 ± 0.015
47 | CUUAAGGAGACCUUCUUACUGGGUUACCUAA | 0.00145 ± 0.0069
48 | CUAUUCCUCUGGAUCUACUCCGUUACCUAA | 0.0198 ± 0.0061

Row | Sequence | pre-steady-state target cleavage rate
49 | CUUAAGGAGACCUAGAUCUGUGGUUACCUAA | 0.000401 ± 0.0083
50 | CUUAAGGAGACCUAGUACUGGGUUACUAA | 0.00018 ± 0.033
51 | CUUAAGGAGAGGAUCUACUGGGUUACUAA | 0.000497 ± 0.015
52 | CUUAAGGAGACCAUCAACUGGGUAACCUAA | 0.000431 ± 0.011
53 | CUUAAGGAGACCAUCUACUGGGUAACGUAA | 0.000184 ± 0.037
54 | CUUAAGGAGACCAUCUUCAGGGUUACCUAA | 0.00141 ± 0.009
55 | CUUAAGGACUGAGAUCUACUGGGUUACCUAA | 0.0268 ± 0.028
56 | CUUAUCCUCUGGAUCUACAGGGUUUCCUAA | 0.119 ± 0.02
57 | CUUAAGGAGACGAUCUACUAGGUUACCUAA | 0.00245 ± 0.0049
58 | CUUAAGGAGUGGUUCUUCUGGGUUACCUAA | 0.00197 ± 0.0073
59 | CGAUUCCUCUGGAUCUACUGGGUUACCUAA | 0.329 ± 0.048
60 | CUUAAGCUCUGGAUCUACUGGAGUUACCUAA | 0.00131 ± 0.0063
61 | CUUAAGGAGACCUAGAUGUGGGUUGACCUAA | 0.000404 ± 0.015
62 | CUUAAGGAGACCUUCAACUGCGUUACCUAA | 0.00204 ± 0.0027
63 | CUUAACCUCUGGAUCUACUGGUGUUACCUAA | 0.00188 ± 0.0043
64 | CUUAAGGAGAGGAUCUACUGGGAUACGUAA | 0.0037 ± 0.0066
65 | CUUAAGGUCUGGAUCUACUGGGUUACAUAA | 0.606 ± 0.054
66 | CAAUUCCUCUGGUUCUACUGGGUAACCUAA | 0.162 ± 0.032
67 | CAAUUCCUCUGGAUUACUGGGUUACCUAA | 0.692 ± 0.054
68 | CUUAAGGACUGGAUCUAGUCGGUUACCUAA | 0.000256 ± 0.039
69 | CUUAAGGAGUGGGAUCUACUGGGUUACCUAA | 0.0146 ± 0.0073
70 | CUUAAGGACUGGAUCUACUCGGUUACCAAA | 0.00437 ± 0.013
71 | CUUAAGGACUGGAUCAACUGGGUAACCUAA | 0.00303 ± 0.013

Reference: the supplement of paper PMC10338343
